Assay results reported in US6043211A, “Method for inhibiting the activity of a platelet-derived growth factor receptor binding protein” (The Regents of the University of California, priority 1995, dated 2000).
Entries after “also recorded” stand apart in the source; their conditions may differ. At least one peptide structure holds a part that was inferred or is arguable (an end, a ring closure or a residue).

Amino acid sequences for entries named in this document (tags omitted).
UniProt P27986, whole entry: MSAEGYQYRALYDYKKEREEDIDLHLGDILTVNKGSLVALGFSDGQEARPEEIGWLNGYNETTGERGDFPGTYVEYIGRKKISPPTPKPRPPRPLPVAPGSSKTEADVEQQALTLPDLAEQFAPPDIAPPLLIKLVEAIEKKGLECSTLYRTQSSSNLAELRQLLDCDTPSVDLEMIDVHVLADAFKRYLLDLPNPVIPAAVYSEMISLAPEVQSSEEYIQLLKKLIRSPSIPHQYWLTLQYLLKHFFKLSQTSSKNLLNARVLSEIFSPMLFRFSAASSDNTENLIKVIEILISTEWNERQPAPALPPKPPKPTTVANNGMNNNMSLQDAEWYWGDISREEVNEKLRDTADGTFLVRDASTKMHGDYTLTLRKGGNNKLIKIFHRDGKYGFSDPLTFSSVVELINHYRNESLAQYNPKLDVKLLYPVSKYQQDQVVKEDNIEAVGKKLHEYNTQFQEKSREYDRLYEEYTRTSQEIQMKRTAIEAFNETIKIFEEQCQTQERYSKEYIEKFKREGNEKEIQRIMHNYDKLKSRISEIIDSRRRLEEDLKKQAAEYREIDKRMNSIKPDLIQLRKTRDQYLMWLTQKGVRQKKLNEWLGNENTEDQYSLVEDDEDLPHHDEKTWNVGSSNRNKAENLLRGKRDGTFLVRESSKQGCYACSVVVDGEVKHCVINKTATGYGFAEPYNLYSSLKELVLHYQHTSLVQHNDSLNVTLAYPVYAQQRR
UniProt P26450, whole entry: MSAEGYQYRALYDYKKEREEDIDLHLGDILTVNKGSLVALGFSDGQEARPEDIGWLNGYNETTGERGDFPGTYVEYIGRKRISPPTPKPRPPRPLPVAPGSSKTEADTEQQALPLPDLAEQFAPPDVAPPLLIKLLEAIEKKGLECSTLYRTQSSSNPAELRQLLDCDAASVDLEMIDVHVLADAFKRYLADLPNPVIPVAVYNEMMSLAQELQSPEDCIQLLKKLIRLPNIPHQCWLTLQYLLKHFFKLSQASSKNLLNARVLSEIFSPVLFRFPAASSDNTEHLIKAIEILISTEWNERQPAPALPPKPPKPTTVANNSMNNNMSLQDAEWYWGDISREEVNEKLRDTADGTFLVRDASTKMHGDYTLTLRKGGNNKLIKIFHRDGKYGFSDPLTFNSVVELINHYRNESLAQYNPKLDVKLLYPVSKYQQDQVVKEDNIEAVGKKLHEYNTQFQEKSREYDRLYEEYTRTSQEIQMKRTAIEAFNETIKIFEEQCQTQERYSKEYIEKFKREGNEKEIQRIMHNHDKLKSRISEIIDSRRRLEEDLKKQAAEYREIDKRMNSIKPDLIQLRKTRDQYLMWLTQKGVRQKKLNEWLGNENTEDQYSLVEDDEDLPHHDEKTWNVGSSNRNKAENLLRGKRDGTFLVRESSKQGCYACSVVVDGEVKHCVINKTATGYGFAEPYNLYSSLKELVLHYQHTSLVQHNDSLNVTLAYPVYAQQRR

Key:
Format in all cases: binding
[1] = molecular target: PI3 kinase association with c-fms protein (Homo sapiens, UniProt P27986); test: Association of PI3 kinase with the c-fms protein in vitro
[2] = molecular target: T1, GAP association with PDGF receptor (Mus musculus, UniProt E9PYG6); test: Association of GAP with the receptor (immunoblot); conditions: 3T3 lysate preincubated with peptide, FIG. 6
T1 construct: Unstimulated 3T3 lysates were preincubated in the presence and absence of a receptor phosphopeptide (Y719P); endogenous in cells; host or cells: BALB/c 3T3 cell lysate (GAP); receptor from baculovirus-infected Sf9 cells
T1 sequence (E9PYG6 1-1038): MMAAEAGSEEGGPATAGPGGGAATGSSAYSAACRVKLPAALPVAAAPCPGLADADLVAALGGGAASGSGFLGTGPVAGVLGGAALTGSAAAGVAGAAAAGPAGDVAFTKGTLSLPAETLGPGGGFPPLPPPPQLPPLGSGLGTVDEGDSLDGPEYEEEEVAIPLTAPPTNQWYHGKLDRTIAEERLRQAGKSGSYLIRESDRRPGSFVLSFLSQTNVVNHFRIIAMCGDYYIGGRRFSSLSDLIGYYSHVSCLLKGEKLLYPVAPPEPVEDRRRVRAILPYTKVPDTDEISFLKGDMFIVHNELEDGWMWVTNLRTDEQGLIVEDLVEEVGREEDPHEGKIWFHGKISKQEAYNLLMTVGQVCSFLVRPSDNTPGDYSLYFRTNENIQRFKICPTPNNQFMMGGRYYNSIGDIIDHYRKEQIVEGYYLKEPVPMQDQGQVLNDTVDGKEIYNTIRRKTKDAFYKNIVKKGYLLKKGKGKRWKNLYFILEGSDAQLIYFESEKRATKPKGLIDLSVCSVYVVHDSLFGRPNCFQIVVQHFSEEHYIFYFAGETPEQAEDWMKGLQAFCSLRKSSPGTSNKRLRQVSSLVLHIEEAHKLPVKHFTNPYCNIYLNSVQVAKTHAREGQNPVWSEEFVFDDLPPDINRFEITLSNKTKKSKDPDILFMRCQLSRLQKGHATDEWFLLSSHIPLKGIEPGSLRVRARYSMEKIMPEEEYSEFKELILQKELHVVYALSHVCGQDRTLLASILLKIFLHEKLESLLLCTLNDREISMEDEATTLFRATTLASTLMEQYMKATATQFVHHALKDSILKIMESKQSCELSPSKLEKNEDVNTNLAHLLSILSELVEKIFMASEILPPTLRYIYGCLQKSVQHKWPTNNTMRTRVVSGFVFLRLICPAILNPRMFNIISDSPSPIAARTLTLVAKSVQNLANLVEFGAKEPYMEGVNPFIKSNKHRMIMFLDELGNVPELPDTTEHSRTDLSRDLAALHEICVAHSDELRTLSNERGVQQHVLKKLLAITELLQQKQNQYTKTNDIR

[3] = molecular target: T2, PI3 kinase association with type B PDGF receptor (Mus musculus, UniProt P26450); test: In vitro association of PI3 kinase activity with immobilized baculovirus-expressed PDGF receptor; conditions: peptides (50 μM) preincubated with unstimulated 3T3 lysate, FIG. 4b
T2 construct: Cytoplasmic cell lysates from density-arrested BALB/c 3T3 cells were mixed with the immobilized receptor; endogenous in cells; host or cells: BALB/c 3T3 cell lysate (85 kD protein); receptor made in Sf9 insect cells with recombinant baculovirus
Text: An in vitro system was used to study the interaction of PDGF receptors and PI3 kinase. […] These phosphoproteins include the 85 kDa protein and a 110 kDa protein that have recently been correlated with PI3 kinase activity. In in vitro experiments, the type B PDGF receptor was expressed in an insect cell expression system, partially purified, and immobilized using anti-receptor antibodies and protein A Sepharose. The receptor was allowed to autophosphorylate in vitro, so that it would be in a conformation that mimicked the ligand-activated state of the receptor. Cytoplasmic cell lysates from density-arrested BALB/c 3T3 cells were mixed with the immobilized receptor and the complexes were washed extensively. PI3 kinase activity was found in the complex of proteins associated with the receptor (FIG. 1d). The receptor-associated phosphoproteins were detected by an in vitro kinase assay using ^32 P-ATP. At least four receptor-associated proteins with apparent molecular weights of 140 kD, 120/110 kD (sometimes a doublet), 85 kD and 74 kD were radiolabeled (the bands at 160 kD and 150 kD are the baculovirus-expressed receptor and its precursor, respectively). The 140 kD band has been previously identified as […] and the band at 74 kD includes the raf-1 kinase and probably another molecule as well. […]

[4] = molecular target: T3, PLC-γ association with PDGF receptor (Mus musculus, UniProt Q62077); test: Association of PLC-γ with the receptor (immunoblot); conditions: 3T3 lysate preincubated with peptide, FIG. 6
T3 construct: Unstimulated 3T3 lysates were preincubated in the presence and absence of a receptor phosphopeptide (Y719P); endogenous in cells; host or cells: BALB/c 3T3 cell lysate (PLC-γ); receptor from baculovirus-infected Sf9 cells
T3 sequence (Q62077 1-1302): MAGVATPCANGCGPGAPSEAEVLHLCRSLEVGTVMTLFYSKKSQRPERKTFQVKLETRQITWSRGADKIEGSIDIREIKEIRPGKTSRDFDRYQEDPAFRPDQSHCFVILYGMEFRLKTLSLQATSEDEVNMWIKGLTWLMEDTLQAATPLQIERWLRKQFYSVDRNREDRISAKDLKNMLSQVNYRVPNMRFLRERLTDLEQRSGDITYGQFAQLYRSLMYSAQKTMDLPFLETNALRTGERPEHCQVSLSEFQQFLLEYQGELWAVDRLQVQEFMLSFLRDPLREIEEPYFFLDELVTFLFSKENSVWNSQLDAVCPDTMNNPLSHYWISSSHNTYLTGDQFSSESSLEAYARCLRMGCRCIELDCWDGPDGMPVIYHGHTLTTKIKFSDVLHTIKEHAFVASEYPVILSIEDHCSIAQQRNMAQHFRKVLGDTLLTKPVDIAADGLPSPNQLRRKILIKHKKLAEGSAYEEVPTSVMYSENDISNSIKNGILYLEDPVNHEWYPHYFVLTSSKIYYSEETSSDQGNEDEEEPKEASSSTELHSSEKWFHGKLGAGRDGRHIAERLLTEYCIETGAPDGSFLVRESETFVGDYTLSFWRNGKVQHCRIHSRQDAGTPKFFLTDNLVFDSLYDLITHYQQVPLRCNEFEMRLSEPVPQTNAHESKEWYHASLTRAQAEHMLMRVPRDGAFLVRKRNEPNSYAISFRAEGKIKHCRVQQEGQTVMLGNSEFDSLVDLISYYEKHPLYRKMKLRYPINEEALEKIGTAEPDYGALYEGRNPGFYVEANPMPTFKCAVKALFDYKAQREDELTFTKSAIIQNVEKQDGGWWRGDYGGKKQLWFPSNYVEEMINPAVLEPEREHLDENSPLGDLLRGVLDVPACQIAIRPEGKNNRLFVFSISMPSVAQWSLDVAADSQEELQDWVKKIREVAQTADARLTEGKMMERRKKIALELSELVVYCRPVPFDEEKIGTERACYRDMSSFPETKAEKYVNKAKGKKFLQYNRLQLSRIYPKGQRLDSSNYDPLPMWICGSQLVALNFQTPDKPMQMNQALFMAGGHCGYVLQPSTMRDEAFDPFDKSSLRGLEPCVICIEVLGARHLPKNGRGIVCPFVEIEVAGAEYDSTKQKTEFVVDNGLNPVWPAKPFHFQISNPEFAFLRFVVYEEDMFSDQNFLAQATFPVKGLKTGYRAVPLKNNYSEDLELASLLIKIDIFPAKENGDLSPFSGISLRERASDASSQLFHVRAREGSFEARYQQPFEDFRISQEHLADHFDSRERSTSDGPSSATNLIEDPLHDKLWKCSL

`CC[C@H](C)[C@H](NC(=O)[C@H](CO)NC(=O)[C@H](CCC(=O)O)NC(=O)[C@H](CC(=O)O)NC(=O)[C@H](CCCCN)NC(=O)[C@H](CO)NC(=O)[C@H](CCSC)NC(=O)[C@H](CC(=O)O)NC(=O)[C@H](CCSC)NC(=O)[C@H](Cc1ccc(O)cc1)NC(=O)CNC(=O)CN)C(=O)N[C@@H](CC(=O)O)C(=O)N[C@@H](Cc1ccc(OP(=O)(O)O)cc1)C(=O)N[C@H](C(=O)N1CCC[C@H]1C(=O)N[C@@H](CCSC)C(=O)N[C@@H](CC(C)C)C(=O)N[C@@H](CC(=O)O)C(=O)N[C@@H](CCSC)C(=O)O)C(C)C` [Y719P] was tested, and the “Blocking of association of PI3 kinase with the c-fms protein” value [1] was “blocked association of PI3 kinase with the c-fms protein”, the “Effect on association of GAP with the receptor” value [2] was “is not affected” and the “Blocking of association of PI3 kinase activity with the receptor” value [3] was “inhibited the association of PI3 kinase activity; also recorded: specifically blocked association of 85 kD/PI3 kinase activity with the receptor; also recorded: efficiently prevented the association of the receptor with the PI3 kinase”. For the same compound, the “Effect on association of PLC-γ with the receptor” value [4] was “is not affected”.
In the case of `CC[C@H](C)[C@H](NC(=O)[C@H](CO)NC(=O)[C@H](CCC(=O)O)NC(=O)[C@H](CC(=O)O)NC(=O)[C@H](CCCCN)NC(=O)[C@H](CO)NC(=O)[C@H](CCSC)NC(=O)[C@H](CC(=O)O)NC(=O)[C@H](CCSC)NC(=O)[C@H](Cc1ccc(OP(=O)(O)O)cc1)NC(=O)CNC(=O)CN)C(=O)N[C@@H](CC(=O)O)C(=O)N[C@@H](Cc1ccc(O)cc1)C(=O)N[C@H](C(=O)N1CCC[C@H]1C(=O)N[C@@H](CCSC)C(=O)N[C@@H](CC(C)C)C(=O)N[C@@H](CC(=O)O)C(=O)N[C@@H](CCSC)C(=O)O)C(C)C` [Y708P], the “Blocking of association of PI3 kinase activity with the receptor” value [3] was “blocked the interaction of PI3 kinase with the receptor; also recorded: efficiently prevented the association of the receptor with the PI3 kinase”.
